# Results as given in US20110086089A1, “USE OF P27KIP1 FOR THE PREVENTION AND TREATMENT OF HEART FAILURE” (UNIVERSITY HEALTH NETWORK, priority 2008, published 2011).
# At least one structure is not confirmed: it was looked up by name or label, or the drawing left a doubt.
# System: p27 degradation in cardiomyocytes
# Experiment: Ang II-triggered p27 degradation / p27 half-life in cardiomyocytes
# Format: cell-based, rat
# Details: proteasome inhibitors, conditions not given
# Procedure: FIG. 3 is a series of graphs, blots and cell stainings showing essential function of CK2-alpha-prime-mediated p27 degradation for cardiomyocyte hypertrophy. […] Cells were transduced with TAT-conjugated wt.p27 (2.5 μg/ml), phosphorylation resistant p27deltaPi, or phosphomimicking mutant p27.S83D/T187D for 1 h before Ang II addition for 4 h. Isotypic anti-CK2-alpha-prime immunocomplex kinase assays were performed employing histone H1 substrate. Input levels of transduced TAT-fusion proteins were determined prior to Ang II addition by immunoblotting of total cell extracts. Mean±s.e.m., n=3. *P<0.01 vs unstimulated cells. **P<0.01 vs Ang II. #P<0.01. endog, endogenous. (B) Pharmacological inhibition of the 26S-proteasome abrogates Ang II-triggered p27 degradation. […] Aliquots of total cell extracts were resolved on SDS-PAGE, transferred to nitrocellulose-membranes, autoradiographed (right panel), and quantified with ImageJ software (left panel). […] De novo protein synthesis was determined by in vivo labeling of cardiomyocytes with [^35S]methionine (right panel). Cell size was determined by indirect immunofluorescence microscopy employing anti-tropomyosin staining and ImageJ. Expression levels of endogenous CK2-alpha-prime and p27 were determined by immunoblotting of total cell extracts employing specific antibodies as indicated. Ectopic SR.CK2-alpha-prime and SR.p27 were detected using anti-His. […]
structure (smiles),measurement,value
CC[C@H](C)[C@H](NC(=O)[C@H]([C@@H](C)CC)N(C)C(C)=O)C(=O)N[C@H](C(=O)N[C@@H](CC(C)C)C(=O)[C@@]1(C)CO1)[C@@H](C)O [epoxomycin],p27 degradation,inhibit p27 degradation
